# Some of these results come from one statement about several compounds together.
# Tested on: LSCs
# Assay: LSCs from treated primary recipients transplanted into secondary recipients, propagation of CML
# Format: in vivo, mouse
# Conditions: LSCs treated in primary recipients days 8-21 post-BMT; secondary recipients untreated
# Description: The CML model was established in the primary recipients as in FIG. 5. The recipients were then treated with Imatinib, PGE1 or Misoprostol alone, or in combination during days 8-21 post-BMT. The LSCs were isolated from the BM of the primary recipients and transplanted into another set of secondary recipients. The ability of LSCs to propagate CML in the secondary recipients were tracked.
# Note that the LSCs were only treated with PGE1 or Misoprostol in the primary recipients for 2 weeks, and none of the secondary recipients were treated.
# CML animals were treated with the solvent dimethyl sulfoxide (DMSO) as a negative control (See FIG. 6).
structure (smiles),measurement,value
CCCCC(C)(O)C/C=C/[C@H]1[C@H](O)CC(=O)[C@@H]1CCCCCCC(=O)OC (mixture of isomers) [Misoprostol],day BMT beyond which all secondary recipients survived,> 60 days

# Source: patent publication US20150342961A1, “USE OF PROSTAGLANDIN E1 (PGE1) AND MISOPROSTOL FOR TREATING CHRONIC MYELOGENOUS/MYELOID LEUKEMIA (CML)” (priority 2014, published 2015)
